Numbering of substitutions follows the chain as printed. Results are given in words; binding and its absence hold for the method and conditions named. For part of these data: Binding can be weak; no strength is given. Where a sequence is shown, tags or fusion partners need not be part of it.
Columns and labels:
[1] = biological target: T1, His6-hsPEX19-FV (M255F/Q259V) (human) (UniProt P40855); assay: BLI; His-hsPEX19-FV immobilised on a Ni-NTA biosensor; GST-Httex1-51Q proteins 250 nM to 15.6 nM; 30 °C; 20 mM HEPES (pH 7.5), 150 mM KoAc; association 300 s, dissociation 600 s; 1:1 binding model; both purified
T1 sequence: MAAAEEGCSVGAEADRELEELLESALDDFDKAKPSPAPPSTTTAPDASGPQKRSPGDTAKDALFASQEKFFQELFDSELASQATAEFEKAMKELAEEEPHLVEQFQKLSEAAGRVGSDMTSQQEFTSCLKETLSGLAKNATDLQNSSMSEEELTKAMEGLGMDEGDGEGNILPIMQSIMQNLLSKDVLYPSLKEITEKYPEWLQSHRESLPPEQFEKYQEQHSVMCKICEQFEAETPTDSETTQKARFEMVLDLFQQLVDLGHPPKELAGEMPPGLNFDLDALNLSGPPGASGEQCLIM

[2] = biological target: T1, His6-hsPEX19-FV (M255F/Q259V) (human); assay: condition: 250 nM (highest concentration of the series); BLI; His-hsPEX19-FV immobilised on a Ni-NTA biosensor; GST-Httex1-51Q proteins 250 nM to 15.6 nM; 30 °C; 20 mM HEPES (pH 7.5), 150 mM KoAc; association 300 s, dissociation 600 s; 1:1 binding model; both purified
[3] = biological target: T2, His6-hsPEX19-FI^Bpa (human) (UniProt P40855); assay: cross-linking; Bpa photo-cross-linking, Bpa in hsPEX19 (F255 or M179); 3 μM hsPEX19^Bpa with equimolar Httex1-51Q-WT or -ΔN, 3 h at 30 °C in TEV reaction buffer with AcTEV protease; UV on dry ice 10 min; Western blot with PEX19 and S-tag antibodies; both purified
T2 sequence (chain, p-benzoyl-L-phenylalanine (Bpa) in place of residue F255): T1 sequence with V259I

[4] = biological target: T3, His6-hsPEX19-FV^Bpa (human) (UniProt P40855); assay: as above
T3 sequence (chain, p-benzoyl-L-phenylalanine (Bpa) in place of residue F255): T1 sequence

binding [1] | binding [2] | binding [3] | binding [4] | Substance
binds |  |  |  | GST-Httex1-51Q-WT (domain or fragment)
 | no binding |  |  | GST-Httex1-51Q-ΔN (domain or fragment)
 |  | binds | binds | Httex1-51Q-WT (after TEV cleavage of GST) (domain or fragment)
 |  | no binding (tested: 3 μM each) | no binding (tested: 3 μM each) | Httex1-51Q-ΔN (after TEV cleavage of GST) (domain or fragment)
